Consider 38 targets from the supplement of paper PMC12067093, “Discovery and optimisation of a covalent ligand for TRIM25 and its application to targeted protein ubiquitination” (Chemical Science, 2025).

By UniProt entry, the sequences of proteins in these tests, tags left out. Where a name states a change or a piece, a line headed by the entry shows the natural chain unless it says otherwise.
UniProt O94822: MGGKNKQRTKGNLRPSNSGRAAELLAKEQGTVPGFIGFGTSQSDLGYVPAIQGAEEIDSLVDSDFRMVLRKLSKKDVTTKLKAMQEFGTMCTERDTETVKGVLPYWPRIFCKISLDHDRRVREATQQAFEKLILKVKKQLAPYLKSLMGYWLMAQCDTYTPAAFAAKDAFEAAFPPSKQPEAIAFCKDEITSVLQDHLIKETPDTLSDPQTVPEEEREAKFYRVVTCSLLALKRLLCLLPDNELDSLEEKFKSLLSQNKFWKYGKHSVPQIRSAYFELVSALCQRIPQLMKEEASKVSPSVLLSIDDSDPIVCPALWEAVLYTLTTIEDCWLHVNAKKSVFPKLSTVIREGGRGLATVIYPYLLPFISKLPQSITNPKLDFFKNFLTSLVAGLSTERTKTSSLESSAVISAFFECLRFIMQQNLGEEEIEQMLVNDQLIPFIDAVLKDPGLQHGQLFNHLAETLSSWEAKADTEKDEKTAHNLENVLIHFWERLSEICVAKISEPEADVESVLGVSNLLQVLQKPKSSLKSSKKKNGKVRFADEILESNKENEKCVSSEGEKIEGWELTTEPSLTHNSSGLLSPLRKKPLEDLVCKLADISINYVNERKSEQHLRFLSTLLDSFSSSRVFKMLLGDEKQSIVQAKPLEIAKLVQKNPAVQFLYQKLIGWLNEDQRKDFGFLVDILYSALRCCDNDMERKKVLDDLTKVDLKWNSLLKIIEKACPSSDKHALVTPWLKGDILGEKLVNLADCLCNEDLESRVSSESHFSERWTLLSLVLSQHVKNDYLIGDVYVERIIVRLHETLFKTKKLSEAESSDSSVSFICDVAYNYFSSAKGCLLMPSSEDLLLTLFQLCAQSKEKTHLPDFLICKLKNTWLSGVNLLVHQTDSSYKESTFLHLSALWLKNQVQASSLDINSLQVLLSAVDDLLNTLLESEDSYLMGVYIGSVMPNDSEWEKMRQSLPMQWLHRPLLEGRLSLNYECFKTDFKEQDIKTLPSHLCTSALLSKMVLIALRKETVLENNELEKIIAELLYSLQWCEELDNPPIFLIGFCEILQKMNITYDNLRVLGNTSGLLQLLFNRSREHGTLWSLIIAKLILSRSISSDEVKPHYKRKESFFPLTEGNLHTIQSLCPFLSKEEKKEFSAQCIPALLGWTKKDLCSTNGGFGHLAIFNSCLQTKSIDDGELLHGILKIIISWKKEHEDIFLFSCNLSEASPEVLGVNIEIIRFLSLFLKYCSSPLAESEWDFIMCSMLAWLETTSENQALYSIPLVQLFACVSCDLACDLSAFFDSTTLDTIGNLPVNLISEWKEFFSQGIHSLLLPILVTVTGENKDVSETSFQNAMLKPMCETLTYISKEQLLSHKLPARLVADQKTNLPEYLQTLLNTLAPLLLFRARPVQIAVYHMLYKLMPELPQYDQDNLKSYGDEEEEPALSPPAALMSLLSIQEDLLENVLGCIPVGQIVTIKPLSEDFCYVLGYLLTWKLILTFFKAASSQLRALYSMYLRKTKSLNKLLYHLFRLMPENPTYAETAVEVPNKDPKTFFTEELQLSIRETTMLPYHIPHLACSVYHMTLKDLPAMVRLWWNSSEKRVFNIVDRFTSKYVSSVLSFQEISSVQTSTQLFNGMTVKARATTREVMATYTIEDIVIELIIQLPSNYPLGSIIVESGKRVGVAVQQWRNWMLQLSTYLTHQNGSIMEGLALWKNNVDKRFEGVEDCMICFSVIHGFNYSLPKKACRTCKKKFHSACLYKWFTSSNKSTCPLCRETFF
UniProt Q96II8: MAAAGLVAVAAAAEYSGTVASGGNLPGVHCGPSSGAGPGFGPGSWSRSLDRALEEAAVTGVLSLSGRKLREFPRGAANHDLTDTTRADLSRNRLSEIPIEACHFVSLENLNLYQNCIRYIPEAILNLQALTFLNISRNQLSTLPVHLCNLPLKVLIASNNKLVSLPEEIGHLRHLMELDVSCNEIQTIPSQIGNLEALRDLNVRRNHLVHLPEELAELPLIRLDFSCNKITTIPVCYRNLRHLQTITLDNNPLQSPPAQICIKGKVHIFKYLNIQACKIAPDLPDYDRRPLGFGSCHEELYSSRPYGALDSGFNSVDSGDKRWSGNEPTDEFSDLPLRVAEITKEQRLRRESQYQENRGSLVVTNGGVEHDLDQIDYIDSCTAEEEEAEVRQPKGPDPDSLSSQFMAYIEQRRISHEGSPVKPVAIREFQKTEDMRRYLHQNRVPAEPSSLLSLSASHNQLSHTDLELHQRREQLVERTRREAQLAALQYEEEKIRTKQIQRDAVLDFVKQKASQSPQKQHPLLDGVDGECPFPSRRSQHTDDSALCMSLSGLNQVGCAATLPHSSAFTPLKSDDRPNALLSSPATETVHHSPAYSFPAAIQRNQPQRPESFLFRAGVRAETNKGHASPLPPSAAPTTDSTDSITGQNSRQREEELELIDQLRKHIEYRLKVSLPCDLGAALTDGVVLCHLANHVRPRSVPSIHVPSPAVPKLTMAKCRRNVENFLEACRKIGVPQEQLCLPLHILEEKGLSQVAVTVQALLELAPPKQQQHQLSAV
UniProt Q9H9A6: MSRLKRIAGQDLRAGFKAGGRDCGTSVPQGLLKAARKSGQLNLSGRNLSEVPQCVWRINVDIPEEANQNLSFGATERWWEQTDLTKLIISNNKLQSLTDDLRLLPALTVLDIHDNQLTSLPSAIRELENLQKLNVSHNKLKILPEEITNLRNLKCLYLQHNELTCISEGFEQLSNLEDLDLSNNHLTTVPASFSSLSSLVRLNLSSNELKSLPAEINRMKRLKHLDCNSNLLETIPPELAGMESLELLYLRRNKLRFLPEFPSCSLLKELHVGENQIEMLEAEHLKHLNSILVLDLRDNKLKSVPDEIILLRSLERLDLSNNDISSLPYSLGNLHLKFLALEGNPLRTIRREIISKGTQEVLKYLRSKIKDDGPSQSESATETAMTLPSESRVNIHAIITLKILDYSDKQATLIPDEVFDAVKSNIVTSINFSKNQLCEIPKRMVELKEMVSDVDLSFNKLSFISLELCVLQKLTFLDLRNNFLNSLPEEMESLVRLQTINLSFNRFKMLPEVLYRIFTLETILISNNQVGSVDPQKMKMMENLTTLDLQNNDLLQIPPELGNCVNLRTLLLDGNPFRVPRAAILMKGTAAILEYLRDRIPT
UniProt P18858, whole entry, looked up: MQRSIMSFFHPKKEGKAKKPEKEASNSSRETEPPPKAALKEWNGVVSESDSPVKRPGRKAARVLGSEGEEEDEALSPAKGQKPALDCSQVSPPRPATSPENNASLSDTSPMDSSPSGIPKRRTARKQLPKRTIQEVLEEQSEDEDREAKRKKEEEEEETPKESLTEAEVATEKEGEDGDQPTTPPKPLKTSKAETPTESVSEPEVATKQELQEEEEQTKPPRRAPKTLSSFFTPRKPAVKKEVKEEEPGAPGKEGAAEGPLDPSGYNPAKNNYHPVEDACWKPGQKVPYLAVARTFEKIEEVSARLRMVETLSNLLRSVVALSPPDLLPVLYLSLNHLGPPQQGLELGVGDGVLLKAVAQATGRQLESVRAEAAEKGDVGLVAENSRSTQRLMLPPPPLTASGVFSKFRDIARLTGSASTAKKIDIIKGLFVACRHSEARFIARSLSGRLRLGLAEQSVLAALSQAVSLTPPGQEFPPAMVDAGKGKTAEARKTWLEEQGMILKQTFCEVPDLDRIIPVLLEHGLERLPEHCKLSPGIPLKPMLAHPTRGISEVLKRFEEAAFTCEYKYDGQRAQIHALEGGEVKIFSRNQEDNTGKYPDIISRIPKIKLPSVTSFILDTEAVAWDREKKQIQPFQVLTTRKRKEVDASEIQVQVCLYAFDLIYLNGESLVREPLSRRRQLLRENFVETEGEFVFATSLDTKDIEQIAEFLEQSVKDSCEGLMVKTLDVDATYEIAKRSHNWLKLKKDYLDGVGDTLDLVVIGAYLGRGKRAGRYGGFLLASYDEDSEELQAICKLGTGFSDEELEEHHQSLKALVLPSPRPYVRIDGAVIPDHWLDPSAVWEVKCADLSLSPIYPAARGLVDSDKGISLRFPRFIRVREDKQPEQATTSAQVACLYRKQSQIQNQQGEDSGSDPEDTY
UniProt P09382, whole entry, looked up: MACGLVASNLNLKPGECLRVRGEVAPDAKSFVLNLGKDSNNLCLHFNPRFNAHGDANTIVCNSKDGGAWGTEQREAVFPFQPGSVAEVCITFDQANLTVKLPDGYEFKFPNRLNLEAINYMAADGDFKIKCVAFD
UniProt O60711: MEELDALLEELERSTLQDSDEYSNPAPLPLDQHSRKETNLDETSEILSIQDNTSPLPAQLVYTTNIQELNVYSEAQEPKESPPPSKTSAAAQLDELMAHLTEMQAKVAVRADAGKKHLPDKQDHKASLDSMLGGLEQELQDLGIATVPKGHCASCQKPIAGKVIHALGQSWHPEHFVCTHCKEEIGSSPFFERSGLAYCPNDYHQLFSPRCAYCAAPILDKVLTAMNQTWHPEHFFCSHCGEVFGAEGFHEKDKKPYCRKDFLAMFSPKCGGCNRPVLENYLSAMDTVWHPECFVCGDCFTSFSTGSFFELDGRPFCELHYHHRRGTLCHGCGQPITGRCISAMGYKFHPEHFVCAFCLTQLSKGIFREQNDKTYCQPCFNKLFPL
UniProt Q15345: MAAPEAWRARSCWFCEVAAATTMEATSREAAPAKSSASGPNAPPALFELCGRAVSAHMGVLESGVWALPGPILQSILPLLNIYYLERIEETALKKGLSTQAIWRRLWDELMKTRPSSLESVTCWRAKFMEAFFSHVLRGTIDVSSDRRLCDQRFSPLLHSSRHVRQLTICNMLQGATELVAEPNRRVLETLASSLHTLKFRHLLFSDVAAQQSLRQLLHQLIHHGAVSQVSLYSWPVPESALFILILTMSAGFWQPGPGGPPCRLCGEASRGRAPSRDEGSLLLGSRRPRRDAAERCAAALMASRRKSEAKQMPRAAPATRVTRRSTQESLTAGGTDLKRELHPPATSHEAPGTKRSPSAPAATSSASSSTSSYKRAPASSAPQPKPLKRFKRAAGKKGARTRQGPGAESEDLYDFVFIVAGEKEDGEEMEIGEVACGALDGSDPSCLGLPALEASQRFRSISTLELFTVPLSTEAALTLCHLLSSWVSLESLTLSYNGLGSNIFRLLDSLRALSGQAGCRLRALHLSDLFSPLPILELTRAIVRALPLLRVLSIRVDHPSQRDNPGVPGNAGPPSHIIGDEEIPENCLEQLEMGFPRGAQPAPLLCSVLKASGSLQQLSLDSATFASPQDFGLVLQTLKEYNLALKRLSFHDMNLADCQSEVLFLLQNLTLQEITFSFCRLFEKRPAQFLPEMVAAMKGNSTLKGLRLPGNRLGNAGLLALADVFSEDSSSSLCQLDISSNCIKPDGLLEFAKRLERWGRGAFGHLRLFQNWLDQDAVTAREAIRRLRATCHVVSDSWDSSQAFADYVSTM
UniProt Q9Y333: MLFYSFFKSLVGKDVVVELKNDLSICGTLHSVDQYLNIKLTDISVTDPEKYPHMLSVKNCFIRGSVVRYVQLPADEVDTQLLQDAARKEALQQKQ
UniProt P49916: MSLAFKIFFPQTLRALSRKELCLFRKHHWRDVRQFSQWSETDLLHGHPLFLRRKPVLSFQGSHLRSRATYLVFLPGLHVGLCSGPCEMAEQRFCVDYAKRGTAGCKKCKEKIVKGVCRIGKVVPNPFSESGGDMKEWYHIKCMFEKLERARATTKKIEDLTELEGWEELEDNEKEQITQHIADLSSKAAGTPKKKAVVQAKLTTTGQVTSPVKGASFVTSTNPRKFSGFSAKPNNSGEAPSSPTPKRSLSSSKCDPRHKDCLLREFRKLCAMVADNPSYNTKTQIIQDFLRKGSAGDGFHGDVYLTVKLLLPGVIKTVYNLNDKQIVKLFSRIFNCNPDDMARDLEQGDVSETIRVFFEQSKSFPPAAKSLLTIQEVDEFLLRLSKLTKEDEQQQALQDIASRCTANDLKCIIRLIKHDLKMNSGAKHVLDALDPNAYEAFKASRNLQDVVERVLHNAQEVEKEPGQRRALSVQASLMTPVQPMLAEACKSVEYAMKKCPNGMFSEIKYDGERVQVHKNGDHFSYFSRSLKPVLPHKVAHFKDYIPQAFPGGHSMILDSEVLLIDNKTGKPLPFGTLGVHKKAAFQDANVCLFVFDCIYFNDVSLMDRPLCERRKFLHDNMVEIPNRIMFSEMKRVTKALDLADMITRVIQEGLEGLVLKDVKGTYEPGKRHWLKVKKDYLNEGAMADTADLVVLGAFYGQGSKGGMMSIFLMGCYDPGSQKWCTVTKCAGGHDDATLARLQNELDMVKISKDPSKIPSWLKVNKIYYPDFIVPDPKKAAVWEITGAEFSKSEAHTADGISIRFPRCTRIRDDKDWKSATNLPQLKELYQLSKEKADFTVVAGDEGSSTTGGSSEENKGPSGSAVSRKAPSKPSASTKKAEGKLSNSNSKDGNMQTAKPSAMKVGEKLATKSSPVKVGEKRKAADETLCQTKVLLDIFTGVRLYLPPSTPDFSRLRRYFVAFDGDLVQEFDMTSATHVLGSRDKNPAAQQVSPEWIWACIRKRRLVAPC

Some of the results follow.

Compound in the assay: Cc1cc(ccc1-c1ccccc1)C(=O)N1CCCN(CC1)C(=O)CCl [compound 10]
Put plainly: probe-labelled cysteine peptide fold change vs DMSO (competition) (log2 fold change); higher = less target engagement (more negative = stronger competition). As to conditions: THP-1, incubation time: 4 h.
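Note: competitive profiling in live THP-1 cells: cysteine peptides tagged with an iodoacetamide desthiobiotin (IA-DTB) probe, intensity after compound treatment relative to DMSO-treated cells.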

Regarding “LSS_P48449_410_MQGTNGSQIWDTAFAIQALLEAGGHHRPEFSSCLQK (UniProt P48449)”, the “probe-labelled cysteine peptide fold change” value was determined as 0.182 (10 µM) and 0.215 (50 µM).
On to “LTN1_O94822_595_KKPLEDLVCK (UniProt O94822)”, for which the “probe-labelled cysteine peptide fold change” value reads like this: (10 µM) -0.0186; (50 µM) 0.0933.
With “LGALS9_O00182_102_GMPFDLCFLVQSSDFK (UniProt O00182)”, the “probe-labelled cysteine peptide fold change” value was -0.137 (10 µM) and 0.539 (50 µM).
Turning to “LRCH3_Q96II8_531_QHPLLDGVDGECPFPSR (UniProt Q96II8)”, the “probe-labelled cysteine peptide fold change” value by setting is: (10 µM) -0.153; (50 µM) -0.329.
For the target “LRRC40_Q9H9A6_264_FLPEFPSCSLLK (UniProt Q9H9A6)”, the “probe-labelled cysteine peptide fold change” value runs as follows: (10 µM) -0.145; (50 µM) -0.0617.
In the same order, the values of “LIG1_P18858_508_QTFCEVPDLDRIIPVLLEHGLER (UniProt P18858)” are -0.0398 and -0.161.
For “LRRC40_Q9H9A6_23_DCGTSVPQGLLK (UniProt Q9H9A6)” the same measures were -0.263 and -0.46.
In the case of “LGALS1_P09382_3_ACGLVASNLNLKPGECLR (UniProt P09382)”, the “probe-labelled cysteine peptide fold change” value was -0.0881 (10 µM) and -0.371 (50 µM).
Consider “LRRFIP1_Q32MZ4_726+742_CTLPEHESPSQDISDACEAESTER (UniProt Q32MZ4)”, for which the “probe-labelled cysteine peptide fold change” value runs as follows: (10 µM) -0.403; (50 µM) -0.296.
On to “LENG9_Q96B70_127_EEPFSAFCWDQPLAALGPGVLAVPQHR (UniProt Q96B70)”, for which the “probe-labelled cysteine peptide fold change” value is, setting by setting: (10 µM) 0.199; (50 µM) -0.344.
Consider “LENG8_Q96PV6_695_ADPCVAHALALR (UniProt Q96PV6)”, for which the “probe-labelled cysteine peptide fold change” value reads like this: (10 µM) -0.0426; (50 µM) 0.134.
“LRRC57_Q8N9N7_82_LTVLPDEICNLK (UniProt Q8N9N7)”: the “probe-labelled cysteine peptide fold change” value runs as follows: (10 µM) -0.0865; (50 µM) 0.0875.
For “LTN1_O94822_1131_ESFFPLTEGNLHTIQSLCPFLSK (UniProt O94822)”, the “probe-labelled cysteine peptide fold change” value is, setting by setting: (10 µM) -0.093; (50 µM) -0.225.
As for “LRCH3_Q96II8_148_NQLSTLPVHLCNLPLK (UniProt Q96II8)”, the “probe-labelled cysteine peptide fold change” value was found to be 0.138 (10 µM) and 0.0632 (50 µM).
On to “LIG1_P18858_895_QPEQATTSAQVACLYR (UniProt P18858)”, for which the “probe-labelled cysteine peptide fold change” value runs as follows: (10 µM) -0.0186; (50 µM) -0.117.
On to “LRRK2_Q5S007_1187_FSCIPEAILNLPHLR (UniProt Q5S007)”, for which the “probe-labelled cysteine peptide fold change” value (10 µM) was -0.0375 and the “probe-labelled cysteine peptide fold change” value (50 µM) is -0.109.
In the same order, the values of “LIMA1_Q9UHB6_414_LLANQQVFHISCFR (UniProt Q9UHB6)” are 0.102 and 0.0802.
As to “LSM12_Q3MHD2_17_AAPPGEYFSVGSQVSCR (UniProt Q3MHD2)”, the “probe-labelled cysteine peptide fold change” value was -0.189 (10 µM) and -0.222 (50 µM).
On to “LPXN_O60711_332_GTLCHGCGQPITGR (UniProt O60711)”, for which the “probe-labelled cysteine peptide fold change” value is -0.0698 (10 µM) and 0.039 (50 µM).
As for “LIN9_Q5TKA1_176_CSSAFFEEER (UniProt Q5TKA1)”, the “probe-labelled cysteine peptide fold change” value by setting is: (10 µM) -0.18; (50 µM) -0.143.
For “LRRC41_Q15345_607_GAQPAPLLCSVLK (UniProt Q15345)”, the “probe-labelled cysteine peptide fold change” value was -0.179 (10 µM) and -0.273 (50 µM).
Turning to “LPXN_O60711_199_SGLAYCPNDYHQLFSPR (UniProt O60711)”, the “probe-labelled cysteine peptide fold change” value was 0.00976 (10 µM) and -0.00891 (50 µM).
For “LPP_Q93052_499+502+505_AYHPHCFTCVMCHR (UniProt Q93052)” the same measures were 0.0502 and -0.141.
As for “LRRC59_Q96AG4_59_LTTLPSDFCGLTHLVK (UniProt Q96AG4)”, the “probe-labelled cysteine peptide fold change” value by setting is: (10 µM) 0.0847; (50 µM) 0.0224.
Consider “LRCH4_O75427_213_LDFSCNR (UniProt O75427)”, for which the “probe-labelled cysteine peptide fold change” value was 0.0491 (10 µM) and -0.112 (50 µM).
Regarding “LSM2_Q9Y333_26_DVVVELKNDLSICGTLHSVDQYLNIK (UniProt Q9Y333)”, the “probe-labelled cysteine peptide fold change” value runs as follows: (10 µM) 0.0504; (50 µM) -0.543.
For the target “LRBA_P50851_2820_QLFAYPGCDAGIR (UniProt P50851)”, the “probe-labelled cysteine peptide fold change” value by setting is: (10 µM) -0.136; (50 µM) 0.347.
For “LIMS1_P48059_193+196_MGVPICGACR (UniProt P48059)” the same measures were 0.00512 and -0.193.
For “LGALS9_O00182_74_FEDGGYVVCNTR (UniProt O00182)”, the “probe-labelled cysteine peptide fold change” value was found to be 0.126 (10 µM) and 0.163 (50 µM).
With “LRCH4_O75427_102_NRFPEVPEAACQLVSLEGLSLYHNCLR (UniProt O75427)”, the “probe-labelled cysteine peptide fold change” value was 0.162 (10 µM) and -0.158 (50 µM).
As for “LSS_P48449_636_QMADGGWGEDFESCEERR (UniProt P48449)”, the “probe-labelled cysteine peptide fold change” value runs as follows: (10 µM) -0.158; (50 µM) -0.0587.
For “LIG3_P49916_929_KAADETLCQTK (UniProt P49916)”, the “probe-labelled cysteine peptide fold change” value (10 µM) was -0.152 and the “probe-labelled cysteine peptide fold change” value (50 µM) was -1.24.
For “LIG3_P49916_499_KCPNGMFSEIK (UniProt P49916)”, the “probe-labelled cysteine peptide fold change” value (10 µM) is -0.186 and the “probe-labelled cysteine peptide fold change” value (50 µM) was -0.351.
In the case of “LRRC41_Q15345_123_TRPSSLESVTCWR (UniProt Q15345)”, the “probe-labelled cysteine peptide fold change” value was -0.327 (10 µM) and -0.356 (50 µM).
In the same order, the values of “LIMD1_Q9UGP4_630_DYHVECYHCEDCGLELNDEDGHR (UniProt Q9UGP4)” are -0.0648 and 0.0219.
As for “LIG3_P49916_499_CPNGMFSEIKYDGER (UniProt P49916)”, the “probe-labelled cysteine peptide fold change” value is, setting by setting: (10 µM) 0.39; (50 µM) 0.664.
As to “LGALS1_P09382_3_ACGLVASNLNLK (UniProt P09382)”, the “probe-labelled cysteine peptide fold change” value runs as follows: (10 µM) 0.0504; (50 µM) 0.29.
For “LRRC58_Q96CX6_197_EIPPELGNLPSLNYLVLCDNK (UniProt Q96CX6)” the same measures were -0.0304 and -0.439.
